Some results were stated once for a whole list of compounds, not compound by compound.
Test: Solubility measurement in water (Test Example)
Format: physicochemical
Conditions: 25° C., 1 atm, 24 hr
Experimental: In order to evaluate the validity of the method of determining the water insolubility according to the present invention in the Example and Comparative Example, the following testing was performed.

c1ccc2ccccc2c1 [Bicyclo[4.4.0]deca-1,3,5,7,9-pentene]
amount dissolved in 100 g of water: ≤ 0.005 g

Source: patent US10242162B2 (LG Chem, Ltd., priority 2014, dated 2019)
